Experimental data taken from paper PMC3445557.
These are yes or no findings as the source states them, for the method shown. In cells and extracts the contact can be indirect. Binding can be weak; no strength is given.

Tests used:
[1] = biological target: T1, SLP-76 (human (endogenous in Jurkat)) (UniProt Q13094); assay: co-IP; Jurkat cells transfected with CFP/YFP chimeric ITK constructs, stimulated with anti-CD3ε or isotype control antibodies, lysed; lysates immunoprecipitated with anti-SLP-76 or anti-LAT antibodies; immunoblotted with anti-ITK
T1 sequence: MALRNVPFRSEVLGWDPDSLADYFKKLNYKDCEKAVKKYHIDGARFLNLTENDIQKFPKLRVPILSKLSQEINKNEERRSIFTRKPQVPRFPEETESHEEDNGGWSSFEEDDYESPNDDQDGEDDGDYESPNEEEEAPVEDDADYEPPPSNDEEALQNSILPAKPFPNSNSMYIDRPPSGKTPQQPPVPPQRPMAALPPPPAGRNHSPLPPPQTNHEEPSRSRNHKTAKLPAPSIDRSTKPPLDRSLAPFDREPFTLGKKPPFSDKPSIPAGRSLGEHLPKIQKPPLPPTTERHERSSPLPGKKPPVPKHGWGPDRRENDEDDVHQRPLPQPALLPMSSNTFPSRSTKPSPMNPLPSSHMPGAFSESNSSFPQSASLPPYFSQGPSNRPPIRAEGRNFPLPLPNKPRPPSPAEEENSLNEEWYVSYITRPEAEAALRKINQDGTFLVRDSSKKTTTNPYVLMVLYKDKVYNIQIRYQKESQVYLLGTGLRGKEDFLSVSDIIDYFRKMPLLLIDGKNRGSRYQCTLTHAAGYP

[2] = biological target: T2, LAT (human (endogenous in Jurkat)) (UniProt O43561); assay: as above
T2 sequence: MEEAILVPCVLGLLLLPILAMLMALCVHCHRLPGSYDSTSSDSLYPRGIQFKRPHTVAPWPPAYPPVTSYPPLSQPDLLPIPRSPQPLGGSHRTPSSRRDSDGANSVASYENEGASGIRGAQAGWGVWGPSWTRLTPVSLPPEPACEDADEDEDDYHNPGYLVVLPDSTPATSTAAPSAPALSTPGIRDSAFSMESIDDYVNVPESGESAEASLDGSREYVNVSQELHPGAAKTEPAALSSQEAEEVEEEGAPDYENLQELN

## F26S-ITK, CFP/YFP chimeric construct (enzyme)
[1]
  binding: binds
[2]
  binding: binds
